# Test results published in publication PMC8000391.
# No constants are given. Whether binding was seen depends on the method and setting. Binding seen in cells or lysates may run through a third protein. Binding can be weak; no strength is given.
# Biological target: T1, endothelial nitric oxide synthase (eNOS) (human (endogenous in primary human endothelial cells)) (UniProt P29474)
# T1 sequence: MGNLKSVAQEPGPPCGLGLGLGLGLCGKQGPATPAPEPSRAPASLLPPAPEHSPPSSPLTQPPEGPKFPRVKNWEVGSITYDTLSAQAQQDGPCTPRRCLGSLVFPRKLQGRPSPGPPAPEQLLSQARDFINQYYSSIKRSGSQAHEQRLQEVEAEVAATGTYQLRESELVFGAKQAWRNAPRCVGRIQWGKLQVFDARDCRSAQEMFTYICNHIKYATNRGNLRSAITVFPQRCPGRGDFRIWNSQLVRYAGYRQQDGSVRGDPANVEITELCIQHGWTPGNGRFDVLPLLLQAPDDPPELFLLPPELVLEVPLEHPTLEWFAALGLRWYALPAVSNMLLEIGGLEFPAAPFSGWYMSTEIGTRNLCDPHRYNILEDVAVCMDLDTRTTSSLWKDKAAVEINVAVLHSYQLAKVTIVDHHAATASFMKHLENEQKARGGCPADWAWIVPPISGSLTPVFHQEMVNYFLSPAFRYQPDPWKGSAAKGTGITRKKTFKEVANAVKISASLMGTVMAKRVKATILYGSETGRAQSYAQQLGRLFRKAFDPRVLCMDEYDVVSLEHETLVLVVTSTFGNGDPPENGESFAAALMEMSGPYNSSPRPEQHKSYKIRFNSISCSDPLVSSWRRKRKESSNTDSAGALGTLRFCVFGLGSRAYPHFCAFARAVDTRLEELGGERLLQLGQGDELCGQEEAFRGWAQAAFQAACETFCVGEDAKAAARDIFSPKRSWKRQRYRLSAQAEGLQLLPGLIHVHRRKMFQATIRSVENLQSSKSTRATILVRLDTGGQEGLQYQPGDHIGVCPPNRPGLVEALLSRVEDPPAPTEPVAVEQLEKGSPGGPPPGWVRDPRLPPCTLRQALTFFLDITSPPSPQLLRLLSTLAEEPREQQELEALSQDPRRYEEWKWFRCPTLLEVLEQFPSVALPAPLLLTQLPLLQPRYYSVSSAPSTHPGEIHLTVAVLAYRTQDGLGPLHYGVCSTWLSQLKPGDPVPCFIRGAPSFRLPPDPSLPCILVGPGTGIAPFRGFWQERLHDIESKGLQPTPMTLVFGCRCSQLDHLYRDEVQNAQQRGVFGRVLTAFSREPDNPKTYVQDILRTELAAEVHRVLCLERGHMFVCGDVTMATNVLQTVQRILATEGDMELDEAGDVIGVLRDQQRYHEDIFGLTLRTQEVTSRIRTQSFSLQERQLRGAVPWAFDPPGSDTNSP
# Experiment: proximity ligation; Duolink In Situ kit on fixed, permeabilised primary human EC 18 h after transfection (empty vector, GRHL3 FL or GRHL3 ΔbiNLS); primary antibodies against the myc-tag or Akt1 and against eNOS; controls omitting one antibody
substance,measurement,value
human full-length Grainyhead-like 3 (GRHL3) isoform 2 with a C-terminal myc-tag,binding,binds
